This experiment concerns the target human β-klotho extracellular domain (human). As to the kind of experiment: hydrogen deuterium exchange epitope mapping of the mAb-β-klotho ECD complex.

These are yes or no findings as the source states them, for the method shown. Binding can be weak; no strength is given.

B1: version of NOV004 that has a human IgG1-LALA isotype (antibody, V domains shown)
VH: EVQLVESGGGLVKPGGSLRLSCAVSGYSITSGYTWHWVRQAPGKGLEWLSYIHYSVYTNYNPSVKGRFTISRDTAKNSFYLQMNSLRAEDTAVYYCARRTTSLERYFDVWGQGTLVTVSS
VL: DIQMTQSPSSLSASVGDRVTITCQASQDISNYLNWYQQKPGKAPKLLIYYTSRLQSGVPSRFTGSGSGADYTFTISSLQPEDIATYFCQQGNTLPYTFGQGTKLEIK
Consider B1, for which the binding result is “binds”.

(Values after US20190040153A1 (Novartis, published 2019).)
